Laboratory results taken from the supplement of paper PMC12067093, “Discovery and optimisation of a covalent ligand for TRIM25 and its application to targeted protein ubiquitination” (Chemical Science, 2025).
Some of the results follow.

The chains behind the UniProt entries cited, without tags or fusion partners. Where a name states a change or a piece, a line headed by the entry shows the natural chain unless it says otherwise.
UniProt Q9H496: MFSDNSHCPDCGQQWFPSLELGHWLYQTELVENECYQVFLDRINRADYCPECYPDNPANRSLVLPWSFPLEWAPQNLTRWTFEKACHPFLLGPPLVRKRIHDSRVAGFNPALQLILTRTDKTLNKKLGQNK
UniProt Q9Y490: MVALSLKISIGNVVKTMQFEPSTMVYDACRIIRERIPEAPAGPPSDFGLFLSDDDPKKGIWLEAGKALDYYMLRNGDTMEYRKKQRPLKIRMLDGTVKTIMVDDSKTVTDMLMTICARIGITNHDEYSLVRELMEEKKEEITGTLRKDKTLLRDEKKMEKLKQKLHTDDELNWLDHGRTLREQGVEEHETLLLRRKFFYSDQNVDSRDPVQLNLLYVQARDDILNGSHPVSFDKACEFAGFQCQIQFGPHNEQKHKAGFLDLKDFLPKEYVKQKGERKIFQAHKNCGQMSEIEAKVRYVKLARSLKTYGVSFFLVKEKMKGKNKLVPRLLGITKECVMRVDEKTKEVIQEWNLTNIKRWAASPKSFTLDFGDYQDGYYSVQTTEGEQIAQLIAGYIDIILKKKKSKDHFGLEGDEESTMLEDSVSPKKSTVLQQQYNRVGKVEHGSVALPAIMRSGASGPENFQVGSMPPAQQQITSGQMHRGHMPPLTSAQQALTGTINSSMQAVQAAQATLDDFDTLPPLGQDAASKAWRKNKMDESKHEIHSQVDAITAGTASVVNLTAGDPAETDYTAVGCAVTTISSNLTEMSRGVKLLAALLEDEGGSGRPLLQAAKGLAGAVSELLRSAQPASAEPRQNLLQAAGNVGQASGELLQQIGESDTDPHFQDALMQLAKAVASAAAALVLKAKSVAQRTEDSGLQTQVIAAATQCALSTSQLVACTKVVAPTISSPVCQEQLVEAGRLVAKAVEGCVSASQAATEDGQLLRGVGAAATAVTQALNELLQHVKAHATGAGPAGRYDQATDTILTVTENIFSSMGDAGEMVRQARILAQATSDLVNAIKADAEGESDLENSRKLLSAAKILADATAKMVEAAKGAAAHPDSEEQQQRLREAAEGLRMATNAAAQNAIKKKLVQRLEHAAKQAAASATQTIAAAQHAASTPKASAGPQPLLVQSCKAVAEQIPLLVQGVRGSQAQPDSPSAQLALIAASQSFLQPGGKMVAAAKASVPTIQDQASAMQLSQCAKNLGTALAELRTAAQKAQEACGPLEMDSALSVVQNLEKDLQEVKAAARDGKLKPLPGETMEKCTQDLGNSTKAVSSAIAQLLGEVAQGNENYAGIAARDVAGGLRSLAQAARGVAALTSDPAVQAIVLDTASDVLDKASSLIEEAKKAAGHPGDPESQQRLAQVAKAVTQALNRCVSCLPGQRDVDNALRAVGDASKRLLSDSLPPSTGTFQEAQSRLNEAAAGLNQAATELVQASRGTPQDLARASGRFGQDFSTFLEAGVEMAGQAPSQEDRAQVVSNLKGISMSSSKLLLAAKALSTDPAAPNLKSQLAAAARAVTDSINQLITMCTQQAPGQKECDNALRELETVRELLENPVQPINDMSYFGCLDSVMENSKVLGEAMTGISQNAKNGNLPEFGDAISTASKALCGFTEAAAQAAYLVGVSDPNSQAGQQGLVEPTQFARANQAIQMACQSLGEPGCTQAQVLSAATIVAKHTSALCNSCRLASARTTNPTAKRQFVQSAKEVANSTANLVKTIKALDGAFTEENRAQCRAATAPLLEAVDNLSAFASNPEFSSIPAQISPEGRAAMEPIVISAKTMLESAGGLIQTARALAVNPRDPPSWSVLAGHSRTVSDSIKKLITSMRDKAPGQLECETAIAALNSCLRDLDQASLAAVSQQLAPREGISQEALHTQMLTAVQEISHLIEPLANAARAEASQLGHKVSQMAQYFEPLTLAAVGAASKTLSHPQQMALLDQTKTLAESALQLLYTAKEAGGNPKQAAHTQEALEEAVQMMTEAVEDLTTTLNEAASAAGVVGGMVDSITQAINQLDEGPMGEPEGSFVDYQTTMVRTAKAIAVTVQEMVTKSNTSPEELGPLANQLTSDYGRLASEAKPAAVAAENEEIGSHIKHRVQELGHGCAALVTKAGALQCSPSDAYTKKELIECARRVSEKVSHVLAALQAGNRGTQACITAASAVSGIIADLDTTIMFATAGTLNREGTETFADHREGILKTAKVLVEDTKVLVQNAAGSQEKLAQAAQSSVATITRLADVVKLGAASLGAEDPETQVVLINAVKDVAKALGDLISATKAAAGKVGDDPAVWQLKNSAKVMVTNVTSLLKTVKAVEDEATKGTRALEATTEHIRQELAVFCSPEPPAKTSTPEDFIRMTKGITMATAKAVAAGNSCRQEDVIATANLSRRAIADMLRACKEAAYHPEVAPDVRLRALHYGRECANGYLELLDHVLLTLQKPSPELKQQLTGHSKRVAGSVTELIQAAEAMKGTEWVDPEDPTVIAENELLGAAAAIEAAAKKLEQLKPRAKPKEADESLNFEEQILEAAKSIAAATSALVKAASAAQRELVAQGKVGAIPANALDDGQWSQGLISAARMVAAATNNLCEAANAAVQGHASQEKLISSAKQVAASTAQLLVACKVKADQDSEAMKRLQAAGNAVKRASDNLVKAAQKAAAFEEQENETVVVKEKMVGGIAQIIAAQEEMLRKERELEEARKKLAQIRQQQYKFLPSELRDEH
UniProt P11388: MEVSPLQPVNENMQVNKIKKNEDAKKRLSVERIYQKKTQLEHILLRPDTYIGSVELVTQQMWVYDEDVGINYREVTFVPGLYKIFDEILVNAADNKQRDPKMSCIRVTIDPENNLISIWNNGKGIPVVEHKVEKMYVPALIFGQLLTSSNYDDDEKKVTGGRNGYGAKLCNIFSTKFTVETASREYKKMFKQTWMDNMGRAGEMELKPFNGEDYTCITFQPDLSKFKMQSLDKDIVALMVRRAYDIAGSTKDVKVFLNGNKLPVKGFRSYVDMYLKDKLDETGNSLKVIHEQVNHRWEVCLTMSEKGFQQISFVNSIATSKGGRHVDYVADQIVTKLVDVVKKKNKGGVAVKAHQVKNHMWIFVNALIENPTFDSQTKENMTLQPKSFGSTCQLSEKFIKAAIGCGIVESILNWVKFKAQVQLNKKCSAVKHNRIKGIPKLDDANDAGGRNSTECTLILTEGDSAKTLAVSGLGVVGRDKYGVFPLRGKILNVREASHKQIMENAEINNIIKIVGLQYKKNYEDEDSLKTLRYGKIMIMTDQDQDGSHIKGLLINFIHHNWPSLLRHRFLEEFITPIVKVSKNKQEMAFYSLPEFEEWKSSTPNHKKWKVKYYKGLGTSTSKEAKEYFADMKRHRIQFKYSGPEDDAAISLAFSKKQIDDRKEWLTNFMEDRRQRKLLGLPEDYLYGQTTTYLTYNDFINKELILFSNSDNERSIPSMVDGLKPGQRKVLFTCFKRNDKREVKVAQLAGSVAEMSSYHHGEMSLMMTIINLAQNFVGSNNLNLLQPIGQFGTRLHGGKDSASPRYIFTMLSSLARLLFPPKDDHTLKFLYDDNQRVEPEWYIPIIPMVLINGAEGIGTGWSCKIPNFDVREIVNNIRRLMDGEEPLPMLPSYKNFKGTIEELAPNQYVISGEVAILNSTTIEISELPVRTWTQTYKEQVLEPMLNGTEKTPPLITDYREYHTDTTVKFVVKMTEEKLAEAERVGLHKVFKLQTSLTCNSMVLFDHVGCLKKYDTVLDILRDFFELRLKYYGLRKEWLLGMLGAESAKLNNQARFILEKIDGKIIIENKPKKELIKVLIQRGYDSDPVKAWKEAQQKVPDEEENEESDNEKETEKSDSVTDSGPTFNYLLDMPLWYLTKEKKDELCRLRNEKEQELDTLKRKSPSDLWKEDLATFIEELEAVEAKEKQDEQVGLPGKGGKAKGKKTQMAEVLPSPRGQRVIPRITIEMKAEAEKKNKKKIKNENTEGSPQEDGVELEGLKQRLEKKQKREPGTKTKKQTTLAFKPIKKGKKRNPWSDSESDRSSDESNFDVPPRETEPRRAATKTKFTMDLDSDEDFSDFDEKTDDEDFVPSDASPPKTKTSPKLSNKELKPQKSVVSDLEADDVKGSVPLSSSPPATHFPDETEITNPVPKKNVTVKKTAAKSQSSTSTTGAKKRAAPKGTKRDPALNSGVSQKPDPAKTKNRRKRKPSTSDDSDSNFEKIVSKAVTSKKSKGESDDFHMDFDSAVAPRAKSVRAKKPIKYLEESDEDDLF
UniProt P11387: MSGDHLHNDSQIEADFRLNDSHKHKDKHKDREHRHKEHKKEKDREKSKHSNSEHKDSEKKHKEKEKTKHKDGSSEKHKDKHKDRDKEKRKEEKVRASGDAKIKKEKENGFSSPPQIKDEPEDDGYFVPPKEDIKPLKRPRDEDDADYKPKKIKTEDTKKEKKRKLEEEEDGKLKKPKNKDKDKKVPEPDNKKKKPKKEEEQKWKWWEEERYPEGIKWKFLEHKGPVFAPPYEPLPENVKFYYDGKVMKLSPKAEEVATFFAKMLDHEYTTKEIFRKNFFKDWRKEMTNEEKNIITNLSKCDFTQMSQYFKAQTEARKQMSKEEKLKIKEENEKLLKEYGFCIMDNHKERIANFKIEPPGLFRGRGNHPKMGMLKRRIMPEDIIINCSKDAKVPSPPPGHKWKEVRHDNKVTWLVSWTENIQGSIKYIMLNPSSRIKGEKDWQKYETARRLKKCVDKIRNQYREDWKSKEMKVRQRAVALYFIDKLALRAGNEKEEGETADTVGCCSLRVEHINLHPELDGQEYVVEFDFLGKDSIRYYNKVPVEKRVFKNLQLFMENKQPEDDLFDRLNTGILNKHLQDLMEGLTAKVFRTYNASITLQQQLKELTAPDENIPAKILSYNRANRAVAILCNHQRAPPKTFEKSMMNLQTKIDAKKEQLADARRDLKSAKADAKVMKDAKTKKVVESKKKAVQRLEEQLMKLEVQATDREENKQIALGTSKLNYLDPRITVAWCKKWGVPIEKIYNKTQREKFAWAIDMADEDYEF
UniProt Q6NUQ4: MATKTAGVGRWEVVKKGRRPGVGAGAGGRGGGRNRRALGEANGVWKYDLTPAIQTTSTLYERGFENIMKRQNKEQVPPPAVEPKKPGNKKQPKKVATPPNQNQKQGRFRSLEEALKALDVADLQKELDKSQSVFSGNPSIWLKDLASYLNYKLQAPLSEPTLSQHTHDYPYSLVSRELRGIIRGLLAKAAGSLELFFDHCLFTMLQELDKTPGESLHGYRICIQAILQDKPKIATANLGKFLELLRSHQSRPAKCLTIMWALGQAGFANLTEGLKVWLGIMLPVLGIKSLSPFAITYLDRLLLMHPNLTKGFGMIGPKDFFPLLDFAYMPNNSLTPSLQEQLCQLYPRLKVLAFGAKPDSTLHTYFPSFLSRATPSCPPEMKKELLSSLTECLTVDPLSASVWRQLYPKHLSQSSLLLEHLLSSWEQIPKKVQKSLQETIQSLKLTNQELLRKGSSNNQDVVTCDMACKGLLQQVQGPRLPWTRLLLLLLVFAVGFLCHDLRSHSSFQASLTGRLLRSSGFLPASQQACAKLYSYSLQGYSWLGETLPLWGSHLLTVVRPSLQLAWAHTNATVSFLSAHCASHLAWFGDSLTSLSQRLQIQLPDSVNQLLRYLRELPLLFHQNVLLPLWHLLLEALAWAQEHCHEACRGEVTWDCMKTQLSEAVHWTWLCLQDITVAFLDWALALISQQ
UniProt Q5GJ75: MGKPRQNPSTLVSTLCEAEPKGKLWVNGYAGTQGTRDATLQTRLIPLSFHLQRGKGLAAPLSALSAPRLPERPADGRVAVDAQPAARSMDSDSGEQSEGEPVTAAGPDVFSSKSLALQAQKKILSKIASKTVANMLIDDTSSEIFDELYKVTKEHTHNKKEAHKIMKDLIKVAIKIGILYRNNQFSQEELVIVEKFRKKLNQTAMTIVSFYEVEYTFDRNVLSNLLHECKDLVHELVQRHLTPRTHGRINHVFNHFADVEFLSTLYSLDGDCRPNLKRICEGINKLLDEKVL
UniProt O94826, whole entry, looked up: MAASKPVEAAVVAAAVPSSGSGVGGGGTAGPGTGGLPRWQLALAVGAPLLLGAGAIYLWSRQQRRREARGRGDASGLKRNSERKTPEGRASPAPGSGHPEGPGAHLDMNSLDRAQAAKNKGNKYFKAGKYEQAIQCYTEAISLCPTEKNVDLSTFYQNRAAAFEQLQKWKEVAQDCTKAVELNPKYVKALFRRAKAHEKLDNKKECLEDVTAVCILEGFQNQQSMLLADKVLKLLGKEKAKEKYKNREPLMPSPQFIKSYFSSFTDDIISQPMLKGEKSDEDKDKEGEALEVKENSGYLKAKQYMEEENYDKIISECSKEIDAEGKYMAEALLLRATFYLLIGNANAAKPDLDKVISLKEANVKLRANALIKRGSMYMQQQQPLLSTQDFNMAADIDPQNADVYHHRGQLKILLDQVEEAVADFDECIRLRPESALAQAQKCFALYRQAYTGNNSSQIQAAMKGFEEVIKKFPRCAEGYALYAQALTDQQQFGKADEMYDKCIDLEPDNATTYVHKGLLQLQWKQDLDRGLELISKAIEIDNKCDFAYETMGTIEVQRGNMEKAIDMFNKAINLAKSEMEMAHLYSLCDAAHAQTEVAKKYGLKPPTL

The targets below were run with Cc1cc(ccc1-c1ccccc1)C(=O)N1CCCN(CC1)C(=O)CCl [compound 10] (assay: probe-labelled cysteine peptide fold change vs DMSO (competition) (log2 fold change); higher = less target engagement (more negative = stronger competition)). Conditions: 50 µM; THP-1; incubation time: 4 h.
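Also: competitive profiling in live THP-1 cells: cysteine peptides tagged with an iodoacetamide desthiobiotin (IA-DTB) probe, intensity after compound treatment relative to DMSO-treated cells.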

Target | probe-labelled cysteine peptide fold change
TP53BP1_Q12888_1040_TMSVLSCICEAR (UniProt Q12888) | -0.534
TMPO_P42166_341_SGIQPLCPER (UniProt P42166) | -0.36
TOR4A_Q9NXH8_62_LLQPGGGPDVGTGAPRPGCSPR (UniProt Q9NXH8) | 0.07
TOX4_O94842_596_DWDNEYCSNECVVK (UniProt O94842) | 0.0724
TMED3_Q9Y3Q3_144_VTALTQMESACVTIHEALK (UniProt Q9Y3Q3) | -0.0427
TNRC18_O15417_726_ADEDCVDDR (UniProt O15417) | 0.431
TOR1AIP2_Q9H496_86_ACHPFLLGPPLVR (UniProt Q9H496) | 0.243
TLN1_Q9Y490_732_VVAPTISSPVCQEQLVEAGR (UniProt Q9Y490) | 0.17
TMED5_Q9Y3A6_47_ECFYQPMPLK (UniProt Q9Y3A6) | -0.0487
TNS3_Q68CZ2_1381_HYPVNSVIFCALDPQDR (UniProt Q68CZ2) | 0.082
TONSL_Q96HA7_66_ADDPLGCAVAHR (UniProt Q96HA7) | -0.444
TOP2A_P11388_392_SFGSTCQLSEK (UniProt P11388) | -0.0273
TMEM9B_Q9NQ34_66+68_DCDCLHVVEPMPVR (UniProt Q9NQ34) | -0.0293
TP53I3_Q53FA7_76_QGQYDPPPGASNILGLEASGHVAELGPGCQGHWK (UniProt Q53FA7) | -0.0266
TOP1_P11387_504+505_EEGETADTVGCCSLR (UniProt P11387) | -0.39
TMEM214_Q6NUQ4_392_ELLSSLTECLTVDPLSASVWR (UniProt Q6NUQ4) | 0.146
TNFAIP8L3_Q5GJ75_272_INHVFNHFADVEFLSTLYSLDGDCRPNLK (UniProt Q5GJ75) | 0.151
TOMM70_O94826_427_ILLDQVEEAVADFDECIR (UniProt O94826) | 0.369

Already shown: an excerpt of the list.
Target | probe-labelled cysteine peptide fold change
TOP1_P11387_504+505_EEGETADTVGCCSLR (UniProt P11387) | -0.39
TMEM214_Q6NUQ4_392_ELLSSLTECLTVDPLSASVWR (UniProt Q6NUQ4) | 0.146

(listing goes on)

Target | probe-labelled cysteine peptide fold change
TNPO3_Q9Y5L0_204_CLGSWFNLGVLDSNFMANNK (UniProt Q9Y5L0) | 0.526
TOR1AIP1_Q5JTV8_424_CLSEQIADAYSSFR (UniProt Q5JTV8) | 0.432
TMEM94_Q12767_674_LSCVTK (UniProt Q12767) | -0.725
TOP2A_P11388_733_VLFTCFK (UniProt P11388) | 0.328
TLN1_Q9Y490_243_ACEFAGFQCQIQFGPHNEQK (UniProt Q9Y490) | 0.0445
TOP2A_P11388_300_WEVCLTMSEK (UniProt P11388) | 0.261
TM9SF4_Q92544_100+104_KCEVLCSQSNKPVTLTVEQSR (UniProt Q92544) | -0.553
TOPORS_Q9NS56_49_HRPSFLGCR (UniProt Q9NS56) | -0.592
TOR2A_Q5JU69_271_HCVLNELAQLGLEPR (UniProt Q5JU69) | 0.0467
TPP1_O14773_111+122_CHSVITQDFLTCWLSIR (UniProt O14773) | 0.398
TOMM70_O94826_136_YEQAIQCYTEAISLCPTEK (UniProt O94826) | 0.311
TMEM120A_Q9BXJ8_47_LQNNCTSSITR (UniProt Q9BXJ8) | -0.0504
TOPBP1_Q92547_430_WLLECFSK (UniProt Q92547) | 0.168
TOMM70_O94826_588_SEMEMAHLYSLCDAAHAQTEVAK (UniProt O94826) | 0.122
TOP2B_Q02880_271_AYDLAGSCR (UniProt Q02880) | 0.268
TOP2A_P11388_170_LCNIFSTK (UniProt P11388) | -0.0147
TMEM209_Q96SK2_295_KFQYQLACR (UniProt Q96SK2) | -0.587
